Data: PMC3050435

Sequences of proteins named here, by UniProt entry; tags and fusion partners are left off.
UniProt Q9NYB9: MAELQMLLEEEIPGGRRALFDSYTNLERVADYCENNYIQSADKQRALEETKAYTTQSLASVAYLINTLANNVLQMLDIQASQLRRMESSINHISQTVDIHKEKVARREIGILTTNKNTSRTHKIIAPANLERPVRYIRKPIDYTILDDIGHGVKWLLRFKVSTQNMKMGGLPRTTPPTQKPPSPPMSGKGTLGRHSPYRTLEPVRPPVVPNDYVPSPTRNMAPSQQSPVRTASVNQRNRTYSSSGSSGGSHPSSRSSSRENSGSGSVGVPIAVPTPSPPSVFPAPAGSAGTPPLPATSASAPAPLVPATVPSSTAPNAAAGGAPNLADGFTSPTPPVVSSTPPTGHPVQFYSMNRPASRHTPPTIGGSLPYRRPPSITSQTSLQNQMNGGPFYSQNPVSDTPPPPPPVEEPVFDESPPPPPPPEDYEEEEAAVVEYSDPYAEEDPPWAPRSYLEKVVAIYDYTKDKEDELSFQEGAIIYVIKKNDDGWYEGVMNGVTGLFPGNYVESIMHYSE
UniProt Q9UL03: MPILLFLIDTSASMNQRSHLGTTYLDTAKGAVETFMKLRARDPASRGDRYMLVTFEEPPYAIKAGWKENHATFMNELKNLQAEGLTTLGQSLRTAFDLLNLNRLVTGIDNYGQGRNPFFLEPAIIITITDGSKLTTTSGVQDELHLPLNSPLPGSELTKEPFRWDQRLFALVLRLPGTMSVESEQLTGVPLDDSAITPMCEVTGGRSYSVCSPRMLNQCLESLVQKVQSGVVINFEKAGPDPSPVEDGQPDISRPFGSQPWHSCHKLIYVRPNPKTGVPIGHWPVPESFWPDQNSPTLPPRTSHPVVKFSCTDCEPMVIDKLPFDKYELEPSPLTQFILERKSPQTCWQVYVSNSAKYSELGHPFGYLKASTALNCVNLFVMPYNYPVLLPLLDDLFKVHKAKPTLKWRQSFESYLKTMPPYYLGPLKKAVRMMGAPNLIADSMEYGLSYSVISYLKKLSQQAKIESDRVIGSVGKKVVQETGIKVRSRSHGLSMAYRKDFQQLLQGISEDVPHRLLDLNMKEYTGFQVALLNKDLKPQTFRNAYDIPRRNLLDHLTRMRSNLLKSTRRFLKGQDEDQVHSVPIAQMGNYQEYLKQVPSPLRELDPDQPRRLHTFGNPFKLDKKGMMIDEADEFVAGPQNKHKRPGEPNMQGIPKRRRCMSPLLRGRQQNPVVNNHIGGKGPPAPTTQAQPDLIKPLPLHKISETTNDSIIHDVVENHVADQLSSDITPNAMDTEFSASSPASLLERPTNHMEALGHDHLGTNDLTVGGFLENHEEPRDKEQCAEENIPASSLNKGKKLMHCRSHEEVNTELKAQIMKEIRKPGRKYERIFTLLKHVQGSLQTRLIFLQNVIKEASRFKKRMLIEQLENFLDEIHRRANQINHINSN
UniProt P35579: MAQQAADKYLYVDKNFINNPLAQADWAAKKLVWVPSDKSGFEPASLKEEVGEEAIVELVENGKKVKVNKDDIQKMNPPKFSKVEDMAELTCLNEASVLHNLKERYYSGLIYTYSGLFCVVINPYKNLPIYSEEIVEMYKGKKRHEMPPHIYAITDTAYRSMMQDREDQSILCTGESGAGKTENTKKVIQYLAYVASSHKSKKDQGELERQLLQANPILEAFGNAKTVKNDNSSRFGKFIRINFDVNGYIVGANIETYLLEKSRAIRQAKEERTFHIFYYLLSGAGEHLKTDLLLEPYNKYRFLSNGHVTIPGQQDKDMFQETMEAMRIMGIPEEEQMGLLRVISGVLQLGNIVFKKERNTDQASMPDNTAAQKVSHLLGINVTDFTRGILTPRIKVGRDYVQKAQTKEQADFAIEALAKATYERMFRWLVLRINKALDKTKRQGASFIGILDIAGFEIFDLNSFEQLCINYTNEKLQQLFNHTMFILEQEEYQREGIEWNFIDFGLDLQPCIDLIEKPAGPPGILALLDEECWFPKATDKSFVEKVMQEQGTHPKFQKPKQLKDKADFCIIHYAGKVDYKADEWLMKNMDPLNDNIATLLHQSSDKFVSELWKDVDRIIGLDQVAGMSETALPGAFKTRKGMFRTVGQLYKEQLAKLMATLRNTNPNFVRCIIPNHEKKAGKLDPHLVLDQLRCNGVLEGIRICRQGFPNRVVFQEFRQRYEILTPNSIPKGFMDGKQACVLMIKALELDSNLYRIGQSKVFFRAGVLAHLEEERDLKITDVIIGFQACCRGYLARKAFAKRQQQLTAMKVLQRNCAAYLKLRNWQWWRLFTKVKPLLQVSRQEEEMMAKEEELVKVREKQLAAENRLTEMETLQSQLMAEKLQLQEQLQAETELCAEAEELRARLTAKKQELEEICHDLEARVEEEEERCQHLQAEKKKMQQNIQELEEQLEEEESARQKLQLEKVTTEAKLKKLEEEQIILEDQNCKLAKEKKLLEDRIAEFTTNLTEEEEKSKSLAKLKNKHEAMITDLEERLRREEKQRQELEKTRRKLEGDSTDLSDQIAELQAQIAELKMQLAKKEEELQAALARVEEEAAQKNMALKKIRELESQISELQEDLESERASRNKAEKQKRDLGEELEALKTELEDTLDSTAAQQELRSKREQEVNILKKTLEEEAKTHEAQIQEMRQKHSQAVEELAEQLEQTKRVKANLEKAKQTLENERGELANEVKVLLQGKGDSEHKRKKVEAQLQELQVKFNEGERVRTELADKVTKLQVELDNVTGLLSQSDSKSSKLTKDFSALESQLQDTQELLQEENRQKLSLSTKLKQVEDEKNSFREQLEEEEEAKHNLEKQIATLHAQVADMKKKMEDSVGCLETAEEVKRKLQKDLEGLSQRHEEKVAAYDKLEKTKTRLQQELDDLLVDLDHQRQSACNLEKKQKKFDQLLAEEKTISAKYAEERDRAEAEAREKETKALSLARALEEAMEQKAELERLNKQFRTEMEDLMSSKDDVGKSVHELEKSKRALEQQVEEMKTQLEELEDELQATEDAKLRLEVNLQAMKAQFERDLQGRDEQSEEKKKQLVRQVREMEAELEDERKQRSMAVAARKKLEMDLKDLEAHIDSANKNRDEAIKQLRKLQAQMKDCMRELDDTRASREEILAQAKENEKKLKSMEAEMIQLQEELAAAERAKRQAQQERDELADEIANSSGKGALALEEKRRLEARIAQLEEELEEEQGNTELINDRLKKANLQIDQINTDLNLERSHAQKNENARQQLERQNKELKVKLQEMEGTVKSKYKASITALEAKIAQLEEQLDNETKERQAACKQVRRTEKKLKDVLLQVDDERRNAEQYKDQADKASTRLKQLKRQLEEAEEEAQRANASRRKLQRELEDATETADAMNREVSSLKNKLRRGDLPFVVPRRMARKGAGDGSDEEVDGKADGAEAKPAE
UniProt Q9JLT0: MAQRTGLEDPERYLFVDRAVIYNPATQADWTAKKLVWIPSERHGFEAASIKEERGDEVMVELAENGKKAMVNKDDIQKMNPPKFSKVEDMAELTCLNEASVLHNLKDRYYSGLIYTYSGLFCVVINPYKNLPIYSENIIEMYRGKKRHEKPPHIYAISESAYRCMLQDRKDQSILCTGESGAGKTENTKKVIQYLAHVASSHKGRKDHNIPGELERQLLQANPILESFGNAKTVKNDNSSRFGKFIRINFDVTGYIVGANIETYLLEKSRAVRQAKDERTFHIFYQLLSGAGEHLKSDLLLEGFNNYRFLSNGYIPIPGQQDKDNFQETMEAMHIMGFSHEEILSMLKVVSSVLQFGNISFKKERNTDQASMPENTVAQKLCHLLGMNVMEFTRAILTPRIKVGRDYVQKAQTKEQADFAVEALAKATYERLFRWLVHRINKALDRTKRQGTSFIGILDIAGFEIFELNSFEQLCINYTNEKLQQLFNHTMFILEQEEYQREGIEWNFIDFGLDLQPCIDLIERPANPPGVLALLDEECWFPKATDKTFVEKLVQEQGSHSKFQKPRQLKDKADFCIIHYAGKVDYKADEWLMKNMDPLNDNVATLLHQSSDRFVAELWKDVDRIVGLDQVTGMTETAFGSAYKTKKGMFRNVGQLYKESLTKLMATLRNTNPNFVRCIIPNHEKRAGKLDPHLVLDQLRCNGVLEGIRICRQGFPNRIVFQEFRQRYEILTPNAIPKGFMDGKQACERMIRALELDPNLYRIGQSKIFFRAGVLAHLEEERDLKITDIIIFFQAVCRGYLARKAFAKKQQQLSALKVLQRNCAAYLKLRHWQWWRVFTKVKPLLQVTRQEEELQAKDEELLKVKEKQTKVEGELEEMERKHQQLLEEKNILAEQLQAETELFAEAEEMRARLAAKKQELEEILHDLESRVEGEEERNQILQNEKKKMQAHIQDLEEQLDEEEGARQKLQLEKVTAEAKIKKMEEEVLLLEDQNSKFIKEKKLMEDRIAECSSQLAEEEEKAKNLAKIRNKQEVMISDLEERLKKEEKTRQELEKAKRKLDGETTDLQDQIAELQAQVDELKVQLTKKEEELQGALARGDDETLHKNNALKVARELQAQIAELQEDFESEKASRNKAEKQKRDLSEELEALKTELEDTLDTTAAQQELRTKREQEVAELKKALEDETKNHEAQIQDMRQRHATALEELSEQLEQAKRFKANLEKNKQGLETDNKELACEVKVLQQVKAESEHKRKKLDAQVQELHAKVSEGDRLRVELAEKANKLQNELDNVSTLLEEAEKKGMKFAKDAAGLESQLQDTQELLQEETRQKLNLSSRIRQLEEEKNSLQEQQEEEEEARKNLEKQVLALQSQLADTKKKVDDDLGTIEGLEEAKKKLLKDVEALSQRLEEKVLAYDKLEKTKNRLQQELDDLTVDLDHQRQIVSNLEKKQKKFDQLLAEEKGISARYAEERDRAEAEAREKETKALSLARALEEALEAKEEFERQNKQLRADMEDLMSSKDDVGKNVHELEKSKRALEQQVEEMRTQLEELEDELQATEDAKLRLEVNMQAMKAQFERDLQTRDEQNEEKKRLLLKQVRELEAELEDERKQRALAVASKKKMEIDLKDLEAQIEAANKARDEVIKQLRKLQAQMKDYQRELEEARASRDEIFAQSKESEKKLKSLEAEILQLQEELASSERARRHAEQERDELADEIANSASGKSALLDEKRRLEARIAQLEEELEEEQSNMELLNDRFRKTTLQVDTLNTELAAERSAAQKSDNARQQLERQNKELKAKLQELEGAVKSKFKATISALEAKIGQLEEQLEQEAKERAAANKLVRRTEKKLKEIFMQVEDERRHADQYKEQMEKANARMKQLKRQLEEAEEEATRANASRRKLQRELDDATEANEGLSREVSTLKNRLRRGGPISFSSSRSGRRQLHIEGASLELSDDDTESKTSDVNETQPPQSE
UniProt Q8IY84: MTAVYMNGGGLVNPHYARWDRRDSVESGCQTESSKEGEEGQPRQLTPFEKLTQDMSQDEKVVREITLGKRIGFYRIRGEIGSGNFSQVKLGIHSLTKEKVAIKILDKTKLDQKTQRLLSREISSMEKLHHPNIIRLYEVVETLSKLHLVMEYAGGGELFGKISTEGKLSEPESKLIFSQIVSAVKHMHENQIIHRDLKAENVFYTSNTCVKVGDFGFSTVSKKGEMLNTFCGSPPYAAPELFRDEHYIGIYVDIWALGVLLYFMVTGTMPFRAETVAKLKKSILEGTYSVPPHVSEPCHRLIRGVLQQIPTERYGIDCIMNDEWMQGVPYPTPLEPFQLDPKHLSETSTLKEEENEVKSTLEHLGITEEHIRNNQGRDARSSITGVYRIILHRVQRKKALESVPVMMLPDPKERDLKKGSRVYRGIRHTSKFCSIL
UniProt P09495: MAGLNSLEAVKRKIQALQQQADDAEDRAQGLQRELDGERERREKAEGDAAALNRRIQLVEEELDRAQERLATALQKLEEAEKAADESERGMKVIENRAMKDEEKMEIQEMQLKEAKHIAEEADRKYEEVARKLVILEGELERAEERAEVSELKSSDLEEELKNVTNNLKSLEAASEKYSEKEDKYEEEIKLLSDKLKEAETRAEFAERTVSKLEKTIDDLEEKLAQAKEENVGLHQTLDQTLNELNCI
UniProt Q6P9T8: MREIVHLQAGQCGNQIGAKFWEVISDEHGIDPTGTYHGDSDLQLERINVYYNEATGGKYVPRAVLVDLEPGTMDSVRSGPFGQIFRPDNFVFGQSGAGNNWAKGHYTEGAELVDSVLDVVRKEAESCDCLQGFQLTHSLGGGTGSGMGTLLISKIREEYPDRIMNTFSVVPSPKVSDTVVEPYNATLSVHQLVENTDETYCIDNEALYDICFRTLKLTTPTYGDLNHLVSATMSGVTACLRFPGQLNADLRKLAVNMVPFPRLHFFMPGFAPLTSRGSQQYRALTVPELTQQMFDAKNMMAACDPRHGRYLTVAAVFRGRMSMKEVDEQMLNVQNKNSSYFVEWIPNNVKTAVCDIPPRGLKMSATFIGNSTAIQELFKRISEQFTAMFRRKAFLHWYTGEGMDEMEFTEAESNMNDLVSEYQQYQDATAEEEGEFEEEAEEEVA

Target: Myc-tagged Pyk2 WT (Proline-rich Tyrosine kinase 2) (UniProt Q14289)
Assay: affinity purification with mass spectrometry

| binding | Molecule |
| --- | --- |
| binds | Abl-interactor-2 (U373) (from UniProt Q9NYB9 1-513) |
| binds | BiP (U373) (from UniProt P11021 19-654) |
| binds | F-actin capping protein-α2 (RSMC) (from UniProt Q3T1K5 1-286) |
| binds | F-actin capping protein-β (RSMC) (from UniProt Q5XI32 1-272) |
| binds | Gelsolin (RSMC) (from UniProt Q68FP1) |
| binds | Hsc70 (U373) (from UniProt P11142 1-646) |
| binds | Integrator complex subunit 6 (U373) (from UniProt Q9UL03 1-887) |
| binds | Myosin light chain-6 (U373) (from UniProt P60660 1-151) |
| binds | Myosin-9 (RSMC) (from UniProt Q62812 1-1961) |
| binds | Myosin-9 (U373) (from UniProt P35579 1-1960) |
| binds | Myosin-10 (RSMC) (from UniProt Q9JLT0 1-1976) |
| binds | NFκB p105 (RSMC) (from UniProt Q63369 1-973) |
| binds | NFκB p105 (U373) (from UniProt P19838 1-968) |
| binds | NIM1 kinase (U373) (from UniProt Q8IY84 1-436) |
| binds | Nectin-3 (U373) (from UniProt Q9NQS3 58-549) |
| binds | TCF-4 (U373) (from UniProt Q9NQB0 1-619) |
| binds | Trio (RSMC) (from UniProt F1M0Z1 1-3100) |
| binds | Tropomyosin-α1 (RSMC) (from UniProt P04692 1-284) |
| binds | Tropomyosin-α1 (U373) (from UniProt P09493 1-284) |
| binds | Tropomyosin-α3 (RSMC) (from UniProt Q63610 1-248) |
| binds | Tropomyosin-α4 (RSMC) (from UniProt P09495 1-248) |
| binds | Tubulin-β-2C (RSMC) (from UniProt Q6P9T8 1-445) |
| binds | USP6 oncogene (U373) (from UniProt P35125 1-1406) |
| binds | Vimentin (RSMC) (from UniProt P31000 1-466) |
| binds | Myosin light chain-6 (RSMC) (protein, UniProt Q64119 1-151) MCDFTEDQTAEFKEAFQLFDRTGDGKILYSQCGDVMRALGQNPTNAEVLKVLGNPKSDEMNVKVLDFEHFLPMLQTVAKNKDQGTYEDYVEGLRVFDKEGNGTVMGAEIRHVLVTLGEKMTEEEVEMLVAGHEDSNGCINYEELLRMVLNG |
| binds | G-protein subunit β5 (RSMC) (protein, UniProt P62882 1-353) MATDGLHENETLASLKSEAESLKGKLEEERAKLHDVELHQVAERVEALGQFVMKTRRTLKGHGNKVLCMDWCKDKRRIVSSSQDGKVIVWDSFTTNKEHAVTMPCTWVMACAYAPSGCAIACGGLDNKCSVYPLTFDKNENMAAKKKSVAMHTNYLSACSFTNSDMQILTASGDGTCALWDVESGQLLQSFHGHGADVLCLDLAPSETGNTFVSGGCDKKAMVWDMRSGQCVQAFETHESDVNSVRYYPSGDAFASGSDDATCRLYDLRADREVAIYSKESIIFGASSVDFSLSGRLLFAGYNDYTINVWDVLKGSRVSILFGHENRVSTLRVSPDGTAFCSGSWDHTLRVWA |

| Molecule | binding |
| --- | --- |
| Mortalin (U373) (from UniProt P38646 47-679) | binds |

These are yes or no findings as the source states them, for the method shown. Binding seen in cells or lysates may run through a third protein. These calls come from enrichment with a bait or labelling near it, and not all partners need be listed.
